Publication PMC4947123
These are yes or no findings as the source states them, for the method shown. Binding seen in cells or lysates may run through a third protein. Some binding calls cover weakened binding; strength is not graded here.

The chains behind the UniProt entries cited, without tags or fusion partners. Where a name states a change or a piece, a line headed by the entry shows the natural chain unless it says otherwise.
UniProt P56959: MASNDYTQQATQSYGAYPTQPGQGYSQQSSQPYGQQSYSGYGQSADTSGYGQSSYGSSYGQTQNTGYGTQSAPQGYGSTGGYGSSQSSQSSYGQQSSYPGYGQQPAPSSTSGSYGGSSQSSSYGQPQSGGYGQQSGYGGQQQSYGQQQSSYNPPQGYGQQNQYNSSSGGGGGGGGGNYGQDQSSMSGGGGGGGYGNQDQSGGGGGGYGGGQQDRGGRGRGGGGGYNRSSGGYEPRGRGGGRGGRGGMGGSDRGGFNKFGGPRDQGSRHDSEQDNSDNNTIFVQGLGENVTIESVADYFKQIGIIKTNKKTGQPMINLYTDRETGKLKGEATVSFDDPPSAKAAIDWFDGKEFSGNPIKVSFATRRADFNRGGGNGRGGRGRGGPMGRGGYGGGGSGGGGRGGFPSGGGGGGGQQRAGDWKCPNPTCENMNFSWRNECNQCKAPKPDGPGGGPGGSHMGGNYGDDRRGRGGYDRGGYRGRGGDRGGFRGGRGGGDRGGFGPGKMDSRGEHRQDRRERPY

Legend:
Assay in all cases: co-IP; endogenous proteins, N2A lysate (20 mM Tris-HCl pH 7.5, 150 mM NaCl, 1 % NP-40, 10 % glycerol), IP with antibodies against Atxn2, Fus or Tdp-43, protein A or G magnetic beads, immunoblot; IgG control
[1] = molecular target: T1, endogenous Atxn2 (mouse (endogenous in N2A)) (UniProt O70305)
T1 sequence: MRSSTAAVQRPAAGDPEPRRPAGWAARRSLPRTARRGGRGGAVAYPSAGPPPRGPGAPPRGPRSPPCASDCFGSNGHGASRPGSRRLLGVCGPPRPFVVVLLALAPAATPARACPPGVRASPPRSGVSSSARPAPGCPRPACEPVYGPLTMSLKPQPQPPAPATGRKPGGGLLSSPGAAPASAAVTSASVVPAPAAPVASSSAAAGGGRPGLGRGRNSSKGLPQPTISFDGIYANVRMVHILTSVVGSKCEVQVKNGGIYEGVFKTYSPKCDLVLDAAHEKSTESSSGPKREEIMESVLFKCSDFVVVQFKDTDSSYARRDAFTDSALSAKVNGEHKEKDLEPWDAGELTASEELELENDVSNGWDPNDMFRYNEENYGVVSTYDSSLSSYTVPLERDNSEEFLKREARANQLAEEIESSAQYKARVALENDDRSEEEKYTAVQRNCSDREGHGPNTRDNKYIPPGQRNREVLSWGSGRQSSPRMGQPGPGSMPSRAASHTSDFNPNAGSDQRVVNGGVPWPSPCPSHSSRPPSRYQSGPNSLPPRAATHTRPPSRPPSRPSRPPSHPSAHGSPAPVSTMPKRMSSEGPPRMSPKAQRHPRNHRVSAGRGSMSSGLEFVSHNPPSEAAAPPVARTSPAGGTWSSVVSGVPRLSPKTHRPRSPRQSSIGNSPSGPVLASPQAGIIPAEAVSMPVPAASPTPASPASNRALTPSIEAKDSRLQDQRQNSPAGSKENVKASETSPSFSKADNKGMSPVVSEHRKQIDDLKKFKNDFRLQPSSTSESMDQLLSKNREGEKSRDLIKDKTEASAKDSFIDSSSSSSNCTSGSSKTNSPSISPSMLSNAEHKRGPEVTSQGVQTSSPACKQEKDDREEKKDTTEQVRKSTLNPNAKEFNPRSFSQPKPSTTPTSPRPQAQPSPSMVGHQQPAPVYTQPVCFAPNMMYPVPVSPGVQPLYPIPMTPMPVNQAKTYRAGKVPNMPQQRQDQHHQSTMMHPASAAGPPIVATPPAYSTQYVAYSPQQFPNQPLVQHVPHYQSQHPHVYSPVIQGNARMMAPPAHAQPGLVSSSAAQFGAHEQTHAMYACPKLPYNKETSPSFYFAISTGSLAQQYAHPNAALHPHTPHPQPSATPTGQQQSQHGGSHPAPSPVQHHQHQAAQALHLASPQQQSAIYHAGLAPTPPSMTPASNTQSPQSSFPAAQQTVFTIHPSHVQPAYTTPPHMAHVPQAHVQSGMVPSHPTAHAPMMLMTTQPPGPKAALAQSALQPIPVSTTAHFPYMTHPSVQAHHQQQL

[2] = molecular target: endogenous Fus (mouse (endogenous in N2A, NSC-34, primary mouse cortical neurons)) (UniProt P56959)
[3] = molecular target: endogenous Tdp-43 (mouse (endogenous in N2A)) (UniProt Q921F2)

Measured: binding

B1: Caprin1 (protein, UniProt Q60865 1-707)
chain: MPSATSHSGSGSKSSGPPPPSGSSGSEAAAGAAAPASQHPATGTGAVQTEAMKQILGVIDKKLRNLEKKKGKLDDYQERMNKGERLNQDQLDAVSKYQEVTNNLEFAKELQRSFMALSQDIQKTIKKTARREQLMREEAEQKRLKTVLELQYVLDKLGDDDVRTDLKQGLSGVPILSEEELSLLDEFYKLVDPERDMSLRLNEQYEHASIHLWDLLEGKEKPVCGTTYKALKEIVERVFQSNYFDSTHNHQNGLCEEEEAASAPTVEDQVAEAEPEPAEEYTEQSEVESTEYVNRQFMAETQFSSGEKEQVDEWTVETVEVVNSLQQQPQAASPSVPEPHSLTPVAQSDPLVRRQRVQDLMAQMQGPYNFIQDSMLDFENQTLDPAIVSAQPMNPTQNMDMPQLVCPQVHSESRLAQSNQVPVQPEATQVPLVSSTSEGYTASQPLYQPSHATEQRPQKEPMDQIQATISLNTDQTTASSSLPAASQPQVFQAGTSKPLHSSGINVNAAPFQSMQTVFNMNAPVPPANEPETLKQQSQYQATYNQSFSSQPHQVEQTELQQDQLQTVVGTYHGSQDQPHQVPGNHQQPPQQNTGFPRSSQPYYNSRGVSRGGSRGARGLMNGYRGPANGFRGGYDGYRPSFSNTPNSGYSQSQFTAPRDYSGYQRDGYQQNFKRGSGQSGPRGAPRGRGGPPRPNRGMPQMNTQQVN
binds: all assays above
